This assay relates to BDF1 mice, s.c. Lewis lung carcinoma, T/C %. In words: NCI In Vivo Anticancer Drug Screen. Data for tumor model Lewis Lung Carcinoma (subcutaneous) in B6D2F1 (BDF1) mice. Put shortly: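 Antitumor effect in vivo is scored from survival or tumor burden, reported as treated relative to vehicle controls.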
The mark [1] stands for this setting: T/C endpoint: median survival time, dose: 0.4 mg/kg/injection, schedule: Q01DX009 (ip), vehicle: saline, higher T/C = longer survival.
The mark [2] stands for this setting: T/C endpoint: mean tumor weight, dose: 50.0 mg/kg/injection, schedule: Q01DX011 (ip), vehicle: carboxymethylcellulose (CMC), higher T/C = larger tumour.
[3] abbreviates: T/C endpoint: median survival time, dose: 100.0 mg/kg/injection, schedule: Q01DX009 (ip), vehicle: saline with Tween-80, higher T/C = longer survival.
[4] abbreviates: T/C endpoint: median survival time, dose: 400.0 mg/kg/injection, schedule: Q01DX009 (ip), vehicle: saline with Tween-80, higher T/C = longer survival.
[5] abbreviates: T/C endpoint: median survival time, dose: 50.0 mg/kg/injection, schedule: Q01DX009 (ip), vehicle: Klucel (hydroxypropylcellulose) (HPC), higher T/C = longer survival.
Where [6] appears, read: T/C endpoint: median survival time, dose: 100.0 mg/kg/injection, schedule: Q01DX009 (ip), vehicle: Klucel (hydroxypropylcellulose) (HPC), higher T/C = longer survival.
Where [7] appears, read: T/C endpoint: median survival time, dose: 200.0 mg/kg/injection, schedule: Q01DX009 (ip), vehicle: saline with Tween-80, higher T/C = longer survival.

Structures are written as SMILES. The list does not hold the whole screen: it gathers tests that were run many times, whatever their T/C, doses with no T/C, and many T/C values between a quarter and a half above the control. Further doses and runs are listed elsewhere. T/C: endpoint of the treated group in % of that of the vehicle group. Schedules are NCI's codes, taken here to give the interval after Q, in days (D) or hours (H), and the number of doses after X. Some doses have a count of surviving animals in place of a T/C: the source holds a T/C of zero for them, seemingly a mark for toxic or unscored doses. Some doses without a T/C left all or most animals alive at the check, yet need not have been tolerated: survival well below the control is almost never listed, so the zero probably covers shortened survival too. Counts of survivors are from the toxicity check (mostly the fifth day) where no day follows; animals may have died later. Some doses were run more than once; the values are given in rising order. Where survival is the endpoint, this PubChem deposit counts one and a half times the control or more as active, and values a quarter to a half above the control carry no call in these data; other NCI protocols may use other cut-offs. Some T/C values are followed by the survivors on the day toxicity was checked, most often the fifth; where none is given, no animal had died by that day.

For the compound `CN(C)C(=S)N=Nc1c(O)[nH]c2ccccc12`, for the setting “T/C endpoint: mean tumor weight, dose: 4.4 mg/kg/injection, schedule: Q01DX011 (ip), vehicle: carboxymethylcellulose (CMC), evaluated on day 12, higher T/C = larger tumour”, the T/C is 133 % of control. Further, the survivor count is recorded as 1 of 7 (T/C endpoint: mean tumor weight, dose: 60.0 mg/kg/injection, schedule: Q01DX011 (ip), vehicle: carboxymethylcellulose (CMC), higher T/C = larger tumour); 0 of 7 (T/C endpoint: mean tumor weight, dose: 120.0 mg/kg/injection, schedule: Q01DX011 (ip), vehicle: carboxymethylcellulose (CMC), higher T/C = larger tumour); 0 of 7 (T/C endpoint: mean tumor weight, dose: 240.0 mg/kg/injection, schedule: Q01DX011 (ip), vehicle: carboxymethylcellulose (CMC), higher T/C = larger tumour).

Consider `Nc1ncn(C2CC(O)C(CO)O2)c(=O)n1` (stereo not given), for which the T/C (T/C endpoint: median survival time, dose: 0.05 mg/kg/injection, schedule: Q01DX009 (ip), vehicle: Klucel (hydroxypropylcellulose) (HPC), higher T/C = longer survival) is 144 % of control; the T/C (T/C endpoint: median survival time, dose: 0.1 mg/kg/injection, schedule: Q01DX009 (ip), vehicle: Klucel (hydroxypropylcellulose) (HPC), higher T/C = longer survival) is 136 % of control; the T/C (T/C endpoint: median survival time, dose: 0.2 mg/kg/injection, schedule: Q01DX009 (ip), vehicle: Klucel (hydroxypropylcellulose) (HPC), higher T/C = longer survival) is 130 % of control; the T/C (T/C endpoint: median survival time, dose: 0.4 mg/kg/injection, schedule: Q01DX009 (ip), vehicle: Klucel (hydroxypropylcellulose) (HPC), higher T/C = longer survival) is 144 % of control; the T/C under setting [1] is 131 % of control. Further, the survivor count is, setting by setting: under setting [1], 10 of 10; (T/C endpoint: median survival time, dose: 0.8 mg/kg/injection, schedule: Q01DX009 (ip), vehicle: saline, higher T/C = longer survival) 10 of 10; (T/C endpoint: median survival time, dose: 1.6 mg/kg/injection, schedule: Q01DX009 (ip), vehicle: saline, higher T/C = longer survival) 10 of 10; (T/C endpoint: median survival time, dose: 3.2 mg/kg/injection, schedule: Q01DX009 (ip), vehicle: saline, higher T/C = longer survival) 10 of 10.

For the compound `Cc1cc(N(CC(C)Br)CC(C)Br)ccc1N=Nc1ccccc1C(=O)O` (stereo not given), the survivor count is, setting by setting: (T/C endpoint: median survival time, dose: 12.5 mg/kg/injection, schedule: Q01DX009 (ip), vehicle: saline with Tween-80, higher T/C = longer survival) 10 of 10; (T/C endpoint: median survival time, dose: 25.0 mg/kg/injection, schedule: Q01DX009 (ip), vehicle: saline with Tween-80, higher T/C = longer survival) 7 of 10.

`CO/[N+]([O-])=C\C(=O)N/C=C/C(=O)O`: the survivor count is, setting by setting: under setting [2], 0 of 6; (T/C endpoint: mean tumor weight, dose: 75.0 mg/kg/injection, schedule: Q01DX011 (ip), vehicle: carboxymethylcellulose (CMC), higher T/C = larger tumour) 0 of 6.

As for `COc1ccc(-c2ccc(OC)c(OC)c2OC)c(N)c1`, the survivor count is recorded as 10 of 10 under setting [3] and 10 of 10 under setting [4].

With `O=NN(CCCl)C(=O)Nc1cccc(O)c1`, the T/C (T/C endpoint: median survival time, dose: 12.5 mg/kg/injection, schedule: Q01DX009 (ip), vehicle: Klucel (hydroxypropylcellulose) (HPC), higher T/C = longer survival) was 130 % of control and the T/C under setting [5] was 125 % of control [9 of 10 alive]. The survivor count under setting [6] is reported as 7 of 10.

As for `CC[CH2][Pb]([CH2]CC)([CH2]CC)[O]C(=O)C(Cl)(Cl)Cl`, the survivor count (T/C endpoint: median survival time, dose: 0.75 mg/kg/injection, schedule: Q01DX009 (ip), vehicle: saline with Tween-80, higher T/C = longer survival) is recorded as 10 of 10.

For `O=P(O)(NCCCl)NCCCl`, the T/C is, setting by setting: (T/C endpoint: median survival time, dose: 50.0 mg/kg/injection, schedule: Q01DX001 (ip), vehicle: saline, evaluated on day 49, higher T/C = longer survival) 127 % of control; (T/C endpoint: median survival time, dose: 50.0 mg/kg/injection, schedule: Q01DX001 (ip), vehicle: saline, evaluated on day 60, higher T/C = longer survival) 127 % of control. For the same compound, the survivor count (T/C endpoint: median survival time, dose: 200.0 mg/kg/injection, schedule: Q01DX001 (ip), vehicle: saline, higher T/C = longer survival) was 3 of 10 on day 49 and 7 of 10.

`CCCCCCC(=O)O[C@H]1CC[C@H]2[C@@H]3CCC4=CC(=O)CC[C@]4(C)[C@H]3CC[C@]12C`: the T/C (T/C endpoint: median survival time, dose: 20.0 mg/kg/injection, schedule: Q01DX009 (ip), vehicle: water, higher T/C = longer survival) was 127 % of control and the T/C (T/C endpoint: median survival time, dose: 40.0 mg/kg/injection, schedule: Q01DX009 (ip), vehicle: water, higher T/C = longer survival) was 127 % of control.

With `CC(C)=CCC/C(C)=C/CO`, the survivor count reads like this: (T/C endpoint: mean tumor weight, dose: 125.0 mg/kg/injection, schedule: Q01DX011 (ip), vehicle: saline, higher T/C = larger tumour) 1 of 6; (T/C endpoint: mean tumor weight, dose: 250.0 mg/kg/injection, schedule: Q01DX011 (ip), vehicle: saline, higher T/C = larger tumour) 0 of 6.

Regarding `CS(=O)(=O)OCCCCOS(C)(=O)=O`, the survivor count under setting [2] is listed as 1 of 10; the survivor count (T/C endpoint: median survival time, dose: 10.0 mg/kg/injection, schedule: Q01DX009 (ip), vehicle: Klucel (hydroxypropylcellulose) (HPC), higher T/C = longer survival) is listed as 10 of 10; the survivor count (T/C endpoint: median survival time, dose: 10.0 mg/kg/injection, schedule: Q01DX009 (ip), vehicle: saline with Tween-80, higher T/C = longer survival) is recorded as 10 of 10; the survivor count (T/C endpoint: median survival time, dose: 20.0 mg/kg/injection, schedule: Q01DX009 (ip), vehicle: Klucel (hydroxypropylcellulose) (HPC), higher T/C = longer survival) is on record as 10 of 10; the survivor count (T/C endpoint: median survival time, dose: 20.0 mg/kg/injection, schedule: Q01DX009 (ip), vehicle: saline with Tween-80, higher T/C = longer survival) is on record as 9 of 10; the survivor count (T/C endpoint: median survival time, dose: 40.0 mg/kg/injection, schedule: Q01DX009 (ip), vehicle: Klucel (hydroxypropylcellulose) (HPC), higher T/C = longer survival) is 8 of 10. Besides, the survivor count reads like this: (T/C endpoint: median survival time, dose: 40.0 mg/kg/injection, schedule: Q01DX009 (ip), vehicle: saline with Tween-80, higher T/C = longer survival) 8 of 10 and 10 of 10; (T/C endpoint: median survival time, dose: 80.0 mg/kg/injection, schedule: Q01DX009 (ip), vehicle: Klucel (hydroxypropylcellulose) (HPC), higher T/C = longer survival) 0 of 10 and 4 of 10; (T/C endpoint: median survival time, dose: 80.0 mg/kg/injection, schedule: Q01DX009 (ip), vehicle: saline with Tween-80, higher T/C = longer survival) 4 of 10 and 5 of 10.

Turning to `OCN(CO)c1nc(N(CO)CO)nc(N(CO)CO)n1`, the survivor count is given as 2 of 10 (T/C endpoint: median survival time, dose: 50.0 mg/kg/injection, schedule: Q01DX009 (ip), vehicle: saline with Tween-80, higher T/C = longer survival); 5 of 10 under setting [3]; 0 of 10 under setting [7]; 0 of 10 under setting [4]; 0 of 10 (T/C endpoint: median survival time, dose: 800.0 mg/kg/injection, schedule: Q01DX009 (ip), vehicle: saline with Tween-80, higher T/C = longer survival).

With `COc1cc(OC)c(OC)cc1/C=C/c1cc[n+](C)c2ccccc12`, the survivor count (T/C endpoint: median survival time, dose: 25.0 mg/kg/injection, schedule: Q01DX009 (ip), vehicle: saline, higher T/C = longer survival) was 9 of 10; the survivor count (T/C endpoint: median survival time, dose: 50.0 mg/kg/injection, schedule: Q01DX009 (ip), vehicle: saline, higher T/C = longer survival) is 7 of 10 and 9 of 10; the survivor count (T/C endpoint: median survival time, dose: 100.0 mg/kg/injection, schedule: Q01DX009 (ip), vehicle: saline, higher T/C = longer survival) was 0 of 10; the survivor count (T/C endpoint: median survival time, dose: 200.0 mg/kg/injection, schedule: Q01DX009 (ip), vehicle: saline, higher T/C = longer survival) is 0 of 10.

In the case of `CN1c2c(nc(N)[nH]c2=O)NCC1CCNc1ccc(C(=O)NC(CCC(=O)O)C(=O)O)cc1` (stereo not given), the T/C (T/C endpoint: median survival time, dose: 600.0 mg/kg/injection, schedule: Q01DX009 (ip), vehicle: saline, higher T/C = longer survival) is 127 % of control.

`O=c1cc(-c2ccccc2)oc2ccc(O)cc12`: under “T/C endpoint: mean tumor weight, dose: 12.5 mg/kg/injection, schedule: Q01DX011 (ip), vehicle: saline, evaluated on day 12, higher T/C = larger tumour”, the T/C was 131 % of control.

With `CCc1c(CC(=O)O)c2cc(C)ccc2n1Cc1ccc(Cl)cc1`, the survivor count (T/C endpoint: mean tumor weight, dose: 100.0 mg/kg/injection, schedule: Q01DX011 (ip), vehicle: saline, higher T/C = larger tumour) is listed as 1 of 6.

Turning to `S=P(NCCNP(=S)(N1CC1)N1CC1)(N1CC1)N1CC1`, the survivor count under setting [5] is reported as 10 of 10.

For `CCCCSc1nc(N)nc2c1ncn2CC(C)CC` (stereo not given), the survivor count (T/C endpoint: mean tumor weight, dose: 600.0 mg/kg/injection, schedule: Q01DX011 (ip), vehicle: other, higher T/C = larger tumour) is reported as 2 of 6.

`N#CC(Cc1ccccc1)C(=O)O` (stereo not given): the survivor count (T/C endpoint: mean tumor weight, dose: 1000.0 mg/kg/injection, schedule: Q01DX011 (ip), vehicle: other, higher T/C = larger tumour) is listed as 0 of 6.

`C/C(=C\c1ccc(C)cc1)[N+](=O)[O-]`: the survivor count under setting [7] was 2 of 10.

`O=C1N[C@@H]([C@H]2CC[C@H](Cl)CN2)C(=O)N[C@H]1[C@H]1CC[C@H](Cl)CN1`: the survivor count by setting is: (T/C endpoint: median survival time, dose: 4.0 mg/kg/injection, schedule: Q01DX009 (ip), vehicle: saline, higher T/C = longer survival) 10 of 10; (T/C endpoint: median survival time, dose: 6.0 mg/kg/injection, schedule: Q01DX009 (ip), vehicle: saline, higher T/C = longer survival) 10 of 10; (T/C endpoint: median survival time, dose: 10.0 mg/kg/injection, schedule: Q04DX003 (ip), vehicle: saline, higher T/C = longer survival) 10 of 10.

As for `COc1cc(C=Nc2ccc(-c3nc(Cc4ccccc4)sc3C)cc2)ccc1N(CCCl)CCCl`, the survivor count by setting is: under setting [5], 10 of 10; under setting [6], 9 of 10.

(Values after PubChem BioAssay AID270 (DTP/NCI, 2004).)
